Laboratory results from PMC9448326.
These are yes or no findings as the source states them, for the method shown. In cells and extracts the contact can be indirect. These calls come from enrichment with a bait or labelling near it, and not all partners need be listed.

By UniProt entry, the sequences of proteins in these tests, tags left out.
UniProt P17302: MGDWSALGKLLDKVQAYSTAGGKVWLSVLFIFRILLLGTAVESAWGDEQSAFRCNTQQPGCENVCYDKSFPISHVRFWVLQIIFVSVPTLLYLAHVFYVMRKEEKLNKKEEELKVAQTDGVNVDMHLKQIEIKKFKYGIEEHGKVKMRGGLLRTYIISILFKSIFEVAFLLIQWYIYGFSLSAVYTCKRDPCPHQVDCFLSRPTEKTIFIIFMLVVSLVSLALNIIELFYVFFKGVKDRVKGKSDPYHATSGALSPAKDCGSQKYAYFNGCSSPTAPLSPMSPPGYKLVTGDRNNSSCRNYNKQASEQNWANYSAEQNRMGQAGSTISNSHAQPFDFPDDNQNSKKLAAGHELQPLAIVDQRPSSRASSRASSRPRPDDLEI
UniProt P62491: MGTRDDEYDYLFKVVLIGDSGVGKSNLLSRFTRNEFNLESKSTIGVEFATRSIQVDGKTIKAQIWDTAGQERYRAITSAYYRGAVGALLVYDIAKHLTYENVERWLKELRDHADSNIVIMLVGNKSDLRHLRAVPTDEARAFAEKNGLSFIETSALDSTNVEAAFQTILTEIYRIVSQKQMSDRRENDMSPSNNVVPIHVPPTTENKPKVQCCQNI
UniProt P61006: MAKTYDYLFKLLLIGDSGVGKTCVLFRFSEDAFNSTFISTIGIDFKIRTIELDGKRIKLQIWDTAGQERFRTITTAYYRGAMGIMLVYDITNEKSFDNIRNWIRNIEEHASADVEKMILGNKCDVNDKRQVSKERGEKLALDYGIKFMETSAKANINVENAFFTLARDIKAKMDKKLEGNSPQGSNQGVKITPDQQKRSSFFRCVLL

Target: Gap junction protein α1 (GJA1), endogenous in human RPE1 cells (human (endogenous in RPE1)) (UniProt P17302)
Assay: affinity purification with mass spectrometry; human RPE1 lysate (TBS, 1% Triton X-100, 10% glycerol) incubated overnight at 4°C with anti-GJA1 antibody- or rabbit serum-conjugated Protein G Mag Sepharose beads; low-pH elution; Orbitrap mass spectrometry

| Substance | binding |
| --- | --- |
| Rab11a, endogenous in human RPE1 cells (hit of the GJA1 IP-MS) (from UniProt P62491 1-216) | binds |
| Rab8a, endogenous in human RPE1 cells (hit of the GJA1 IP-MS) (from UniProt P61006 1-207) | binds |
